The values that follow come from PubChem BioAssay AID248 (DTP/NCI, 2004).

SMILES strings stand for the structures. The list does not hold the whole screen: it gathers tests that were run many times, whatever their T/C, doses with no T/C, and many T/C values between a quarter and a half above the control. Other doses and runs of a compound stand elsewhere. T/C gives the treated animals as a percentage of the vehicle group. Some doses have a count of surviving animals in place of a T/C: the source holds a T/C of zero for them, seemingly a mark for toxic or unscored doses. Some survivor counts are full or nearly so, which does not show that the dose was tolerated: the source hardly ever lists a survival T/C far under the control, and the zero likely stands for such cases as well. Counts of survivors are from the toxicity check (mostly the fifth day) where no day follows; animals may have died later. Schedule codes are those of the source, read here as Q, the interval in days (D) or hours (H), X, the number of doses. Some entries were tested several times; the results are listed from low to high. For survival time, this PubChem deposit counts one and a half times the control or more as active, and values a quarter to a half above the control carry no call in these data; other NCI protocols may use other cut-offs. Some T/C values carry the count of animals alive at the toxicity check (mostly the fifth day); without a count, all were alive then.

This experiment relates to L1210 leukemia ip in BDF1 mice, survival T/C. The experiment can be described thus: NCI In Vivo Anticancer Drug Screen. Data for tumor model L1210 Leukemia (intraperitoneal) in B6D2F1 (BDF1) mice. As to conditions: T/C endpoint: mean survival time, higher T/C = longer survival.
The mark [1] stands for this setting: dose: 100.0 mg/kg/injection, schedule: Q01DX009 (ip), vehicle: saline.
The mark [2] stands for this setting: dose: 200.0 mg/kg/injection, schedule: Q04DX003 (ip), vehicle: saline.
Setting [3] is: dose: 400.0 mg/kg/injection, schedule: Q04DX003 (ip), vehicle: saline.
The mark [4] stands for this setting: dose: 25.0 mg/kg/injection, schedule: Q01DX009 (ip), vehicle: saline.
The mark [5] stands for this setting: dose: 50.0 mg/kg/injection, schedule: Q01DX009 (ip), vehicle: saline.
Setting [6] is: dose: 100.0 mg/kg/injection, schedule: Q04DX003 (ip), vehicle: saline.
The mark [7] stands for this setting: dose: 400.0 mg/kg/injection, schedule: Q01DX001 (ip), vehicle: saline.
Where [8] appears, read: dose: 100.0 mg/kg/injection, schedule: Q04DX002 (ip), vehicle: saline with Tween-80.
The mark [9] stands for this setting: dose: 200.0 mg/kg/injection, schedule: Q04DX002 (ip), vehicle: saline with Tween-80.
The mark [10] stands for this setting: dose: 400.0 mg/kg/injection, schedule: Q04DX002 (ip), vehicle: saline with Tween-80.
Setting [11] is: dose: 300.0 mg/kg/injection, schedule: Q01DX001 (ip), vehicle: saline.
The mark [12] stands for this setting: dose: 100.0 mg/kg/injection, schedule: Q01DX001 (ip), vehicle: saline.
The mark [13] stands for this setting: dose: 200.0 mg/kg/injection, schedule: Q01DX001 (ip), vehicle: saline.
Setting [14] is: dose: 200.0 mg/kg/injection, schedule: Q04DX003 (ip), vehicle: Klucel (hydroxypropylcellulose) (HPC).
Where [15] appears, read: dose: 400.0 mg/kg/injection, schedule: Q04DX003 (ip), vehicle: Klucel (hydroxypropylcellulose) (HPC).
Where [16] appears, read: dose: 150.0 mg/kg/injection, schedule: Q01DX001 (ip), vehicle: saline.
Setting [17] is: dose: 200.0 mg/kg/injection, schedule: Q01DX009 (ip), vehicle: saline.

Regarding `Oc1cc(Cl)c(Cl)cc1Cl.[Cu+2]`, the survivor count (dose: 50.0 mg/kg/injection, schedule: Q04DX003 (ip), vehicle: gum acacia) is 1 of 6; the survivor count (dose: 100.0 mg/kg/injection, schedule: Q04DX003 (ip), vehicle: gum acacia) is given as 0 of 6; the survivor count (dose: 200.0 mg/kg/injection, schedule: Q04DX003 (ip), vehicle: gum acacia) is listed as 0 of 6; the survivor count (dose: 400.0 mg/kg/injection, schedule: Q04DX003 (ip), vehicle: gum acacia) is given as 0 of 6.
For `CN(C)CC(CN1c2ccccc2Sc2ccccc21)N(C)C` (centres undefined), the survivor count is, setting by setting: under setting [1], 0 of 6; under setting [2], 0 of 4; under setting [3], 0 of 4.
In the case of `CSc1ccc2c(c1)N(CCC1CCCCN1C)c1ccccc1S2` (centres undefined), the survivor count under setting [4] is reported as 1 of 6; the survivor count under setting [5] is recorded as 0 of 6; the survivor count under setting [6] was 2 of 6; the survivor count under setting [2] is recorded as 0 of 6; the survivor count under setting [3] is listed as 2 of 6.
As to `CCC(C)(NC(N)=O)c1ccccc1` (centres undefined), the survivor count under setting [7] is 0 of 6.
For `Cc1ccc(C(C)C)c(OCC[N+]2(CCOc3cc(C)ccc3C(C)C)CC=CC2)c1`, the survivor count under setting [8] is recorded as 0 of 3, the survivor count under setting [9] is recorded as 0 of 3 and the survivor count under setting [10] is listed as 0 of 3.
As for `CC12CCC(Cl)(CC1O)C2(C)C` (centres undefined), under setting [11], the survivor count was 3 of 6.
As to `CCN(CC)CCOB(OCCN(CC)CC)OCCN(CC)CC`, under “dose: 400.0 mg/kg/injection, schedule: Q04DX002 (ip), vehicle: saline”, the survivor count is listed as 3 of 6.
For the molecule `O=C(O)c1nsnc1C(=O)O`, the survivor count under setting [12] is given as 6 of 6.
Take `NC(=O)OCC(CO)(c1ccccc1)c1ccccc1`: the survivor count under setting [12] is 0 of 4, the survivor count under setting [13] was 0 of 4 and the survivor count under setting [7] is listed as 0 of 4.
Consider `CC[n+]1cccc2ccccc21`, for which the survivor count runs as follows: under setting [13], 1 of 6; under setting [7], 0 of 6.
In the case of `CCCN(CCC)CCCCO`, where the note is “dose: 400.0 mg/kg/injection, schedule: Q04DX003 (ip), vehicle: saline with Tween-80”, the survivor count is given as 1 of 6.
`CC(=O)S[C@@H]1CC2=CC(=O)CC[C@]2(C)[C@H]2CC[C@@]3(C)[C@@H](CC[C@@]34CCC(=O)O4)[C@H]12`: the survivor count was 6 of 6 under setting [14] and 4 of 6 under setting [15].
With `O=C(CCl)c1cnc2ccccc2n1`, the survivor count by setting is: (dose: 75.0 mg/kg/injection, schedule: Q01DX001 (ip), vehicle: saline) 0 of 6; under setting [16], 0 of 6; under setting [11], 0 of 6.
For `CN(C)C(=O)Nc1ccncc1`, the survivor count by setting is: under setting [12], 1 of 6; under setting [1], 0 of 3 and 0 of 6; under setting [8], 0 of 3, 1 of 6, 1 of 3; under setting [6], 4 of 6; under setting [9], 0 of 3 and 0 of 6; under setting [10], 0 of 3 and 0 of 6.
Regarding `CC1(C)N=C(N)N=C(N)N1c1ccc(OCCCc2ccccc2)c(N)c1`, under “dose: 100.0 mg/kg/injection, schedule: Q04DX003 (ip), vehicle: saline with Tween-80”, the survivor count is listed as 3 of 6.
With `CC1=C(C)CC(c2ccccc2)C(C(=O)O)C1` (centres undefined), the survivor count (dose: 600.0 mg/kg/injection, schedule: Q01DX001 (ip), vehicle: other) is 0 of 6.
Turning to `O=C(O)c1ccc([N+](=O)[O-])o1`, the survivor count reads like this: (dose: 400.0 mg/kg/injection, schedule: Q01DX009 (ip), vehicle: saline with Tween-80) 0 of 6; (dose: 400.0 mg/kg/injection, schedule: Q04DX003 (ip), vehicle: other) 0 of 6.
With `C=CCC1CC2(C)C(CCC3C2CCC2(C)C(OC(C)=O)CCC32)CC1=O` (centres undefined), the survivor count (dose: 400.0 mg/kg/injection, schedule: Q01DX009 (ip), vehicle: gum acacia) is 5 of 5.
As for `CCOC(=O)/C(N=O)=C(/O)c1ccncc1`, the survivor count under setting [15] is on record as 6 of 6.
Consider `C#CCOCCCC(=C)C`, for which the survivor count under setting [1] is on record as 0 of 6.
In the case of `CC/C(=N\[N+](C)(C)C)c1ccccc1`, the survivor count reads like this: under setting [16], 0 of 6; under setting [11], 0 of 6.
For `CCOc1ccc(/C=N/Nc2ccc([N+](=O)[O-])cc2)cc1OC`, the survivor count is, setting by setting: (dose: 100.0 mg/kg/injection, schedule: Q04DX003 (ip), vehicle: saline sonified) 6 of 6; (dose: 200.0 mg/kg/injection, schedule: Q04DX003 (ip), vehicle: saline sonified) 6 of 6.
Regarding `S=P(NCCNP(=S)(N1CC1)N1CC1)(N1CC1)N1CC1`, the T/C runs as follows: under setting [4], 127 % of control [5 of 6 alive]; under setting [5], 130 % of control. In addition, the survivor count is 6 of 6 (dose: 100.0 mg/kg/injection, schedule: Q01DX009 (ip), vehicle: Klucel (hydroxypropylcellulose) (HPC)); 2 of 6 under setting [17]; 0 of 6 (dose: 400.0 mg/kg/injection, schedule: Q01DX009 (ip), vehicle: saline).
On to `Cc1cccc(N=P(c2ccccc2)(c2ccccc2)c2ccccc2)c1`, for which the survivor count reads like this: (dose: 200.0 mg/kg/injection, schedule: Q01DX009 (ip), vehicle: Klucel (hydroxypropylcellulose) (HPC)) 6 of 6; under setting [15], 4 of 6.
Turning to `COc1cc2c(cc1OC)CC[N+](C)=C2`, the survivor count runs as follows: under setting [17], 0 of 6; under setting [2], 2 of 6; under setting [3], 0 of 6.
Consider `COc1ccccc1OCCOCCN(C)C1CC2CCC1(C)C2(C)C` (centres undefined), for which the survivor count is, setting by setting: under setting [14], 1 of 6; under setting [15], 0 of 6.
